Test results as given in PMC4979479.
No constants are given. Whether binding was seen depends on the method and setting. Binding seen in cells or lysates may run through a third protein. Some binding calls cover weakened binding; strength is not graded here.

Sequences of proteins named here, by UniProt entry; tags and fusion partners are left off.
UniProt Q9UBF6: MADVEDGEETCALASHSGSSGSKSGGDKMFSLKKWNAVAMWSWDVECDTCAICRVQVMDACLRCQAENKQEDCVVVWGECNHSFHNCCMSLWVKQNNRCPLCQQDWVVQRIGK

What was measured:
[1] = molecular target: T1, Noxa (human (endogenous in primary liver tissue)) (UniProt Q13794); assay: co-IP; human primary HCC and paired normal liver tissue lysates in RIPA buffer, precleared with protein G Sepharose; incubated overnight at 4 °C with Noxa or SARM antibody, then protein G Sepharose 3 h; immunoblot for SAG
T1 sequence: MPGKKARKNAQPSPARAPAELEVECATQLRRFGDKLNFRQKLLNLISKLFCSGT

[2] = molecular target: T2, SARM (sterile α and HEAT/armadillo-motif-containing protein) (human (endogenous in primary liver tissue)) (UniProt Q6SZW1); assay: as above
T2 sequence: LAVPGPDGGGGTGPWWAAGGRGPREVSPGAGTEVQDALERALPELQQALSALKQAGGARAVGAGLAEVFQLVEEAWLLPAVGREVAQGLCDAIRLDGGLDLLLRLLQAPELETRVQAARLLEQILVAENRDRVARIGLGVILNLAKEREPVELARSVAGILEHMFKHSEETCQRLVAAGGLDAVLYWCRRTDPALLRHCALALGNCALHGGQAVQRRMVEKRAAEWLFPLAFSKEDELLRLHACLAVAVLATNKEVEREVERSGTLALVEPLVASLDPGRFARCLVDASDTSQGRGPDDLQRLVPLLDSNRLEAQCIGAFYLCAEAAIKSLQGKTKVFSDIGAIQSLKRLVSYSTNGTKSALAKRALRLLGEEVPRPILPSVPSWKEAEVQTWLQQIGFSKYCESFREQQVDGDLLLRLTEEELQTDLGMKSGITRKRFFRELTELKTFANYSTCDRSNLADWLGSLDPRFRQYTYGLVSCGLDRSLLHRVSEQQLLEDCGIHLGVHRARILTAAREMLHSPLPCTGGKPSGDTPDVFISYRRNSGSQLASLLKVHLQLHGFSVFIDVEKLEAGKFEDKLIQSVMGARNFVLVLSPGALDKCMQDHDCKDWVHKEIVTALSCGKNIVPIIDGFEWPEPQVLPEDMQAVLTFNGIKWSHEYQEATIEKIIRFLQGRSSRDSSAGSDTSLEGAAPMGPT

With “SAG (sensitive to apoptosis gene) (from UniProt Q9UBF6 1-113)” the binding [1] was “binds” and the binding [2] was “binds”.
